This is an account of results in PubChem BioAssay AID250 (DTP/NCI, 2004).

The list does not hold the whole screen: it gathers tests that were run many times, whatever their T/C, doses with no T/C, and many T/C values between a quarter and a half above the control. Other doses and runs of a compound stand elsewhere. T/C gives the treated animals as a percentage of the vehicle group. Some doses have a count of surviving animals in place of a T/C: the source holds a T/C of zero for them, seemingly a mark for toxic or unscored doses. Some doses without a T/C left all or most animals alive at the check, yet need not have been tolerated: survival well below the control is almost never listed, so the zero probably covers shortened survival too. For part of these data: Counts of survivors are from the toxicity check (mostly the fifth day) where no day follows; animals may have died later. Schedules are NCI's codes, taken here to give the interval after Q, in days (D) or hours (H), and the number of doses after X. Some schedule codes hold Z or #, which are not explained here. For part of these data: Where survival is the endpoint, this PubChem deposit counts one and a half times the control or more as active, and values a quarter to a half above the control carry no call in these data; other NCI protocols may use other cut-offs. Some T/C values carry the count of animals alive at the toxicity check (mostly the fifth day); without a count, all were alive then.

Assay [1] relates to BDF1 mice, L1210 leukemia sc, survival T/C. Kind of assay: NCI In Vivo Anticancer Drug Screen. Data for tumor model L1210 Leukemia (subcutaneous) in B6D2F1 (BDF1) mice. As to conditions: T/C endpoint: median survival time, higher T/C = longer survival. The procedure, abridged: (§1)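 Mice carrying transplanted tumors received test compounds, and survival or tumor size was measured. Values are the treated-group measurement (T) divided by that of the vehicle-treated control group (C).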

For assay [2], the system named is BDF1 mice, L1210 leukemia sc. Described as above. Particulars: T/C endpoint: median survival time, higher T/C = longer survival. The procedure, abridged:
as §1

As to `CCOC(=O)NP(=O)(N1CC1)N1CC1`, the survivor count in assay [1] (dose: 8.4 mg/kg/injection, schedule: Q01DX Z (sc), vehicle: water) is 2 of 10; in assay [1] (dose: 8.4 mg/kg/injection, schedule: Q02DX Z (sc), vehicle: water) it was 6 of 10; in assay [1] (dose: 8.4 mg/kg/injection, schedule: Q## X Z (sc), vehicle: water) it was 6 of 10; in assay [1] (dose: 39.0 mg/kg/injection, schedule: Q## X Z (sc), vehicle: water) it was 6 of 10; in assay [1] (dose: 108.0 mg/kg/injection, schedule: Q02DX Z (sc), vehicle: water), 5 of 10. Moreover, the T/C in assay [2] (dose: 14.0 mg/kg/injection, schedule: Q01DX001 (sc), vehicle: water) is 125 % of control [8 of 10 alive]; in assay [2] (dose: 14.0 mg/kg/injection, schedule: Q02DX Z (sc), vehicle: water), 145 % of control [9 of 10 alive]; in assay [2] (dose: 14.0 mg/kg/injection, schedule: Q07DX Z (sc), vehicle: water) it was 130 % of control [7 of 10 alive]; in assay [2] (dose: 14.0 mg/kg/injection, schedule: Q## X Z (sc), vehicle: water), 130 % of control [9 of 10 alive]; in assay [2] (dose: 23.0 mg/kg/injection, schedule: Q01DX001 (sc), vehicle: water), 145 % of control; in assay [2] (dose: 23.0 mg/kg/injection, schedule: Q01DX Z (sc), vehicle: water), 140 % of control [9 of 10 alive]. The T/C in assay [2] (dose: 23.0 mg/kg/injection, schedule: Q07DX Z (sc), vehicle: water) is 130 % of control [8 of 10 alive]; in assay [2] (dose: 39.0 mg/kg/injection, schedule: Q01DX Z (sc), vehicle: water), 130 % of control [8 of 10 alive]; in assay [2] (dose: 39.0 mg/kg/injection, schedule: Q02DX Z (sc), vehicle: water), 140 % of control [9 of 10 alive]; in assay [2] (dose: 65.0 mg/kg/injection, schedule: Q01DX001 (sc), vehicle: water), 135 % of control [7 of 10 alive]; in assay [2] (dose: 65.0 mg/kg/injection, schedule: Q01DX Z (sc), vehicle: water), 130 % of control [8 of 10 alive]; in assay [2] (dose: 65.0 mg/kg/injection, schedule: Q02DX Z (sc), vehicle: water), 135 % of control [9 of 10 alive]. Further, the T/C is 135 % of control [9 of 10 alive] in assay [2] (dose: 65.0 mg/kg/injection, schedule: Q07DX Z (sc), vehicle: water); 130 % of control [9 of 10 alive] in assay [2] (dose: 65.0 mg/kg/injection, schedule: Q## X Z (sc), vehicle: water); 130 % of control [8 of 10 alive] in assay [2] (dose: 108.0 mg/kg/injection, schedule: Q01DX001 (sc), vehicle: water); 130 % of control [7 of 10 alive] in assay [2] (dose: 108.0 mg/kg/injection, schedule: Q07DX Z (sc), vehicle: water); 130 % of control in assay [2] (dose: 108.0 mg/kg/injection, schedule: Q## X Z (sc), vehicle: water); 130 % of control [8 of 10 alive] in assay [2] (dose: 180.0 mg/kg/injection, schedule: Q01DX001 (sc), vehicle: water). The T/C is 130 % of control [8 of 10 alive] in assay [2] (dose: 180.0 mg/kg/injection, schedule: Q07DX Z (sc), vehicle: water) and 130 % of control in assay [2] (dose: 180.0 mg/kg/injection, schedule: Q## X Z (sc), vehicle: water).
Consider `CC[C@H]1CN2CCc3cc(OC)c(OC)cc3[C@@H]2C[C@@H]1C[C@H]1NCCc2cc(OC)c(OC)cc21`, for which the survivor count was 8 of 8 in assay [1] (dose: 14.0 mg/kg/injection, schedule: Q01DX009 (sc), vehicle: saline); 8 of 8 in assay [1] (dose: 23.0 mg/kg/injection, schedule: Q01DX009 (sc), vehicle: saline); 8 of 8 in assay [1] (dose: 39.0 mg/kg/injection, schedule: Q04DX003 (sc), vehicle: saline). Also, the T/C in assay [2] (dose: 3.0 mg/kg/injection, schedule: Q03HX003 (sc), vehicle: saline) was 146 % of control; in assay [2] (dose: 5.0 mg/kg/injection, schedule: Q01DX009 (sc), vehicle: saline) it was 139 % of control; in assay [2] (dose: 5.0 mg/kg/injection, schedule: Q03HX003 (sc), vehicle: saline), 132 % of control; in assay [2] (dose: 8.4 mg/kg/injection, schedule: Q01DX009 (sc), vehicle: saline) it was 125 % of control; in assay [2] (dose: 14.0 mg/kg/injection, schedule: Q04DX003 (sc), vehicle: saline) it was 128 % of control; in assay [2] (dose: 23.0 mg/kg/injection, schedule: Q04DX003 (sc), vehicle: saline), 142 % of control. For the same compound, the T/C in assay [2] (dose: 32.0 mg/kg/injection, schedule: Q01DX001 (ip), vehicle: acid diluted with saline) was 138 % of control; in assay [2] (dose: 48.0 mg/kg/injection, schedule: Q01DX001 (ip), vehicle: acid diluted with saline), 134 % of control [7 of 10 alive].
